Taken from: PubChem BioAssay AID1259424 (University of Nebraska Medical Center, 2018)
Screen: 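Seek colon cancer survival genes behaving like KSR1, using a six-gene signature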 (primary screen). System: human HCT116 colon cancer cells. Reagents: siRNA pool against human genes, 50 nM. Measurement: 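Six signature mRNAs by branched-DNA multiplex assay, scaled to two housekeeping genes and non-targeting median, log2; matched to mean KSR1 knockdown profile by Pearson correlation and euclidean distance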. Scale: mean correlation with KSR1 profile and KSR1 correlation: higher = expression change more like KSR1 knockdown; mean distance from KSR1 profile: higher = expression change less like KSR1 knockdown.
The deposit covers about 14,000 reagents; this is an unselected part. 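Higher correlation or smaller distance means closer resemblance to KSR1 loss; control wells, including KSR1 knockdowns, recur on many plates.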 Some reagents were tested in more than one well and are listed for each. Further read-outs or replicates are left out here. Not given: the time to read-out.

no.	target	mean correlation with KSR1 profile	mean distance from KSR1 profile	KSR1 correlation, replicate 1	KSR1 correlation, replicate 2
1	SSB	0.58	1.52	0.695	0.447
2	NAT9	-0.43	3.7	-0.397	-0.485
3	KLRC2	0.359	1.12	-0.159	0.649
4	GSPT2	0.498	2.62	0.569	0.467
5	CDC123	-0.416	3.35	-0.442	-0.513
6	CHRNB1	-0.0599	1.83	0.148	-0.184
7	ZNF281	-0.33	2.29	-0.162	-0.343
8	MAPKAPK3	0.149	2.24	0.186	0.643
9	DRG2	0.122	1.69	0.409	-0.0437
10	SH2D3A	-0.0901	2.58	-0.202	-0.211
11	AFF1	0.337	3.19	0.145	0.192
12	PPP4R4	-0.588	1.8	-0.66	-0.437
13	NARS1	-0.137	1.58	-0.0743	0.144
14	KLRC1	-0.254	2.39	-0.308	-0.476
15	RINT1	-0.367	6.62	-0.171	-0.0364
16	TMC6	0.415	1.84	0.477	0.159
17	TAS2R9	-0.0746	2.84	0.132	0.0736
18	BAGE2	-0.0528	3.02	-0.0941	-0.0699
19	MYL4	-0.377	3	-0.33	-0.399
20	MAPK7	0.797	1.2	0.794	0.869
21	GIT2	0.685	3.13	0.618	0.695
22	UBFD1	-0.111	1.94	0.0144	-0.246
23	SLC7A5	-0.476	1.7	-0.476	-0.391
24	C1orf50	0.158	1.65	-0.0969	0.06
25	DUSP9	0.107	3.49	0.153	0.142
26	TAS2R41	0.301	2.05	0.377	0.387
27	ZKSCAN7	-0.358	6.43	0.0389	-0.0711
28	PSMB9	-0.118	2.68	-0.164	-0.0412
29	MT-ND3	-0.562	2.63	-0.536	-0.54
30	CNMD	0.0244	1.36	-0.0293	-0.0505
31	HMGN4	-0.126	2.67	-0.135	-0.361
32	PEX5	0.0574	2.59	0.0245	0.084
33	COPE	0.386	1.79	0.502	0.365
34	NWD2	-0.0563	3.95	0.0153	-0.14
35	KRIT1	0.0832	1.64	-0.0559	-0.0634
36	ADRA2C	0.523	2.18	0.447	0.515
37	KRT14	0.148	1.63	0.263	0.00164
38	BYSL	-0.295	1.62	0.491	-0.276
39	ACCS	0.0686	2.86	-0.0194	-0.105
40	CIP2A	-0.102	3.48	0.0591	-0.311
41	NUB1	0.289	3.32	0.36	0.442
42	TMEM107	0.337	2.84	0.189	0.407
43	PABPC3	0.0905	1.61	0.378	0.178
44	IBTK	-0.415	2	-0.532	-0.74
45	IBTK	-0.2	2.4	-0.11	-0.405
46	ASS1	0.324	2.43	0.315	0.526
47	SAYSD1	-0.243	1.32	-0.489	-0.586
48	SERPINA7	0.602	1.43	0.53	0.589
49	PDIA5	0.331	2.97	0.344	0.362
50	SLC2A4RG	-0.647	3.04	-0.544	-0.583
51	EFNA3	-0.47	2.82	-0.547	-0.379
52	IL1B	0.74	2.86	0.777	0.743
53	SLC35H1	0.491	0.774	0.479	0.58
54	SEPTIN5	0.118	3.5	0.145	0.135
55	AP3D1	-0.104	2.06	0.00477	-0.172
56	SKP2	-0.41	3.47	-0.469	-0.325
57	REEP4	-0.176	2.38	-0.623	-0.21
58	MAGEC3	-0.644	3.53	-0.736	-0.822
59	MMP1	0.163	1.93	0.207	0.218
60	GNG7	0.4	2.32	0.375	0.393
61	CLIC2	-0.643	2.44	-0.581	-0.685
62	FADS3	-0.54	2.69	-0.774	-0.384
63	UTP14A	-0.554	2.58	-0.321	-0.741
